According to US5965539A, “Inhibitors of prenyl transferases” (Univeristy of Pittsburgh, priority 1996, dated 1999):

Tested on: oncogenic H-Ras activation of MAPK
Assay: Oncogenic H-Ras activation of MAP kinase, immunoblot
Assay type: cell-based
Conditions: tested form: HCl
Protocol: Cells were treated with FTI-277, GGTI-286, or vehicle and lysed as previously described for Ras and Rap1A processing. Equal amounts of protein were separated on a 15% SDS-PAGE, transferred to nitrocellulose, and immunoblotted using an anti-MAP kinase antibody (erk2, monoclonal, UB1, Lake Placid, N.Y.). Antibody reactions were visualized using peroxidase-conjugated donkey anti-mouse IgG (Jackson ImmunoResearch Laboratories Inc., West Grove, Pa.) and an enhanced chemiluminescence detection system (ECL, Amersham Corp.)

For `COC(=O)[C@H](CCSC)NC(=O)c1ccc(NC[C@@H](N)CS)cc1-c1ccccc1` [FTI-277, 4-N-[2(R)-Amino-3-mercaptopropyl]amino-2-phenylbenzoyl methionine methyl ester], the “concentration of complete block of oncogenic H-Ras activation of MAPK” value was 1 μM and 3 μM.

Some entries of the source have several records that differ or are many. They are shown here; other results are not. The source may hold further records. Results that share an entry differ, and nothing given here explains why; some may be repeats, others may stem from another dose, organism or construct than stated.
